# Results as given in PubChem BioAssay (NCATS).
# Inconclusive means that the source gave no clear call. Such entries were picked first, then a sample of the others. A potency beside an inconclusive call is a rough fit, not a confirmed value. Active and inactive are the calls of the source. Unless noted, calls come from the whole dose curve; as a rule, active = well fitted cell-killing curve with a large enough effect; inconclusive = small, poorly fitted or top-dose-only effect, or effect the other way; inactive = no such curve, though single readings can be large or run the other way.
# Assays:
# [1] = Quantitative High-Throughput drug screen in 47 multiple myeloma cell lines against the NCATS MIPE library collection: VP6_DJ cell viability assay (AID 1919867); note: nearly all actives have a fitted effect of over 40% in size
# Summary of the method: (§1)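 Readout: median RLU from CellTiter-Glo after 5 min at room temperature. Preceding step was 48 h drug treatment of 500 cells/well at 37 °C, 5% CO2, with DMSO-only and media-only control wells.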
# [2] = Quantitative High-Throughput drug screen in 47 multiple myeloma cell lines against the NCATS MIPE library collection: UTMC2_PLB cell viability assay (AID 1919868); conditions: CellTiter-Glo ATP luminescence, 48 h; viability (% of DMSO control): at 45.8 µM (top of the series); note: nearly all actives have a fitted effect of over 55% in size;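 for viability (% of DMSO control): 100% = DMSO-only wells and 0% = media-only wells without cells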
# Summary of the method: as §1
# [3] = Quantitative High-Throughput drug screen in 47 multiple myeloma cell lines against the NCATS MIPE library collection: PE2_PLB cell viability assay (AID 1919869); conditions: PE2_PLB myeloma cells viability, ATP luminescence, 48 h; viability (% of control): at 45.8 µM (top of the series); note: nearly all actives have a fitted effect of over 35% in size;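 for viability (% of control): 100% = DMSO-only wells and 0% = cell-free media-only wells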
# Summary of the method: as §1
# [4] = Quantitative High-Throughput drug screen in 47 multiple myeloma cell lines against the NCATS MIPE library collection: PCM6_Riken cell viability assay (AID 1919870); note: nearly all actives have a fitted effect of over 30% in size;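 for viability (% of control): 100% = DMSO-only wells and 0% = media-only wells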
# Summary of the method: as §1
# [5] = Quantitative High-Throughput drug screen in 47 multiple myeloma cell lines against the NCATS MIPE library collection: RPMI8226_ATCC cell viability assay (AID 1919871); conditions: RPMI8226 myeloma viability, CellTiter-Glo ATP luminescence, 48 h; viability (% of control): at 45.8 µM (top of the series); note: nearly all actives have a fitted effect of over 30% in size
# Summary of the method: as §1
# [6] = Quantitative High-Throughput drug screen in 47 multiple myeloma cell lines against the NCATS MIPE library collection: OPM2_DSMZ cell viability assay (AID 1919872); note: nearly all actives have a fitted effect of over 30% in size
# Summary of the method: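 Primary qHTS used for cherry-picking: cells at 500/well, library compounds for 48 h (37C, 5% CO2), luminescent ATP assay.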
# [7] = Quantitative High-Throughput drug screen in 47 multiple myeloma cell lines against the NCATS MIPE library collection: KMS11_JCRBsus cell viability assay (AID 1919873); note: nearly all actives have a fitted effect of over 50% in size;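 for viability (% of control): 100% = DMSO-only wells and 0% = media-only wells without cells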
# Summary of the method: as §1
# [8] = qHTS for identification of novel therapeutic agents for treatment of microphthalmiaassociated transcription factor (MiT) renal cell carcinoma (RCC) (AID 1963991; calls by dose curve); conditions: TFE3-RCC UOK109 viability, CellTiter-Glo, 48 h; active = Z-AUC below -0.8 in all three lines
# Summary of the method: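 UOK109/UOK124/UOK145 (TFE3 fusions, three partners); 500 cells/well; MIPE v4.0, 1912 cpds, 11 conc.; 48 h, 37 C; CellTiter-Glo, 15 min RT; lum. Norm.: DMSO 100%, empty 0%.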
# [9] = Quantitative High-Throughput drug screen in 47 multiple myeloma cell lines against the NCATS MIPE library collection: KMS28BM_JCRB cell viability assay (AID 1919874); conditions: CellTiter-Glo ATP, 48 h; viability, % of control: at 45.8 µM (top of the series); note: nearly all actives have a fitted effect of over 35% in size
# Summary of the method: as §1
# Potency is the fitted concentration of half-maximal effect.
Structure (SMILES),Potency [1],Potency [2],Potency [3],Potency [4],Potency [5],Potency [6],Potency [7],Potency [8],Potency [9],viability (% of control) [3]
O=c1[nH]c(-c2ccc(C(F)(F)F)cc2)nc2c1CSCC2,"inconclusive: 0.0132 µM [rising, full curve, poor fit]","inconclusive: 0.935 µM [cytotoxic, partial curve, poor fit]","inconclusive: 16.6 µM [cytotoxic, partial curve]","inconclusive: 3.72 µM [cytotoxic, full curve, poor fit]","inconclusive: 16.6 µM [cytotoxic, partial curve, poor fit]",inactive,inactive,"inconclusive: 2.09 µM [falling, partial curve, poor fit]",,
CC(C)c1onc(-c2c(Cl)cccc2Cl)c1COc1ccc(C=Cc2cccc(C(=O)O)c2)c(Cl)c1,"inconclusive: 0.0023 µM [rising, full curve]","inconclusive: 0.332 µM [cytotoxic, full curve, poor fit]",inactive,"inconclusive: 0.0042 µM [rising, full curve]",,,,,,
C[C@H](O)[C@@H]1C(=O)N2C(C(=O)O)=C(S[C@@H]3CN[C@H](CNS(N)(=O)=O)C3)[C@@H](C)[C@@H]12,inactive,inactive,"inconclusive: 52.6 µM [cytotoxic, single point]",inactive,"inconclusive: 23.5 µM [cytotoxic, single point]",,,,,
CCCCOCCOc1nc(-c2ccc(C(=O)O)c(F)c2)sc1C,"inconclusive: 0.0019 µM [rising, full curve, poor fit]","inconclusive: 0.0662 µM [rising, full curve, poor fit]","inconclusive: 10.5 µM [cytotoxic, partial curve, poor fit]","inconclusive: 0.0042 µM [rising, full curve, poor fit]",active: 10.5 µM,inactive,inactive,,inactive,
O=C1[C@H](Cc2ccc(O)cc2)N2C(=O)CCN(C(=O)NCc3ccccc3)[C@H]2CN1Cc1cccc2ccccc12,"inconclusive: 4.69 µM [cytotoxic, full curve, poor fit]","inconclusive: 1.66 µM [cytotoxic, full curve, poor fit]",active: 4.69 µM,"inconclusive: 7.43 µM [cytotoxic, partial curve]","inconclusive: 8.33 µM [cytotoxic, partial curve]","inconclusive: 11.8 µM [cytotoxic, partial curve]",,"inconclusive: 23.5 µM [falling, single point]","inconclusive: 16.6 µM [cytotoxic, partial curve, poor fit]",
Cn1c(CNc2ccc(C(=N)N)cc2)nc2cc(C(=O)N(CCC(=O)O)c3ccccn3)ccc21,"inconclusive: 5.75 µM [cytotoxic, single point]","inconclusive: 0.0005 µM [cytotoxic, full curve, poor fit]","inconclusive: 18.2 µM [cytotoxic, single point]",inactive,inactive,,inactive,,,
C[C@]12CC[C@@H]3c4ccc(O)cc4CC[C@H]3[C@H]1[C@@H](O)[C@@H](O)[C@H]2O,inactive,"inconclusive: 9.35 µM [cytotoxic, partial curve, poor fit]",inactive,"inconclusive: 20.9 µM [cytotoxic, single point]","inconclusive: 0.0105 µM [rising, full curve, poor fit]",inactive,"inconclusive: 0.0017 µM [cytotoxic, full curve, poor fit]","inconclusive: 23.5 µM [falling, partial curve]",,
CC1=NN(c2ccccc2)C(=O)C1,"inconclusive: 0.0012 µM [rising, full curve, poor fit]","inconclusive: 0.0372 µM [rising, full curve, poor fit]",,,,,,,,
CNC(=O)c1c(-c2ccc(F)cc2)oc2cc(N(CCO)S(C)(=O)=O)c(C3CC3)cc12,"inconclusive: 16.6 µM [cytotoxic, partial curve, poor fit]","inconclusive: 37.2 µM [cytotoxic, single point]","inconclusive: 37.2 µM [cytotoxic, single point]","inconclusive: 16.6 µM [cytotoxic, partial curve]","inconclusive: 14.8 µM [cytotoxic, partial curve, poor fit]","inconclusive: 20.9 µM [cytotoxic, partial curve, poor fit]",,"inconclusive: 23.5 µM [falling, single point]","inconclusive: 16.6 µM [cytotoxic, partial curve, poor fit]",
CC(C)(S)[C@@H](N)C(=O)O,inactive,"inconclusive: 0.0372 µM [rising, full curve, poor fit]",,,,,,,,
CCc1cc(C(C)=NOCc2ccc(C3CCCCC3)c(C(F)(F)F)c2)ccc1CN1CC(C(=O)O)C1,active: 11.8 µM,"inconclusive: 0.0166 µM [cytotoxic, full curve, poor fit]",,active: 11.8 µM,"inconclusive: 33.2 µM [cytotoxic, single point]","inconclusive: 33.2 µM [cytotoxic, single point]",inactive,"inconclusive: 2.35 µM [falling, full curve]","inconclusive: 9.35 µM [cytotoxic, partial curve, poor fit]",inconclusive: 72.9% [cytotoxic]
CN(C)CCc1c[nH]c2ccc(C[C@H]3COC(=O)N3)cc12,inactive,"inconclusive: 0.0019 µM [cytotoxic, full curve, poor fit]","inconclusive: 20.9 µM [cytotoxic, single point]",inactive,inactive,,,,,
CC1(C)CC(=O)c2c(C(F)(F)F)nn(-c3ccc(C(N)=O)c(NC4CCC(O)CC4)c3)c2C1 (configuration not stated),"inconclusive: 0.148 µM [cytotoxic, full curve]","inconclusive: 0.0833 µM [cytotoxic, full curve, poor fit]",active: 0.118 µM,"inconclusive: 0.166 µM [cytotoxic, full curve]","inconclusive: 0.132 µM [cytotoxic, full curve]",active: 0.166 µM,,active: 0.372 µM,,
Cc1cnc(NC(=O)C2=C(O)c3ccccc3S(=O)(=O)N2C)s1,"inconclusive: 33.2 µM [cytotoxic, single point]","inconclusive: 0.132 µM [rising, full curve, poor fit]","inconclusive: 23.5 µM [cytotoxic, single point]","inconclusive: 37.2 µM [cytotoxic, single point]",,,,,,
CN(C)c1nc(N(C)C)nc(N(C)C)n1,"inconclusive: 1.87 µM [cytotoxic, partial curve, poor fit]",inactive,inactive,"inconclusive: 1.87 µM [cytotoxic, full curve, poor fit]","inconclusive: 6.62 µM [cytotoxic, partial curve, poor fit]",inactive,,"inconclusive: 5.9 µM [falling, partial curve, poor fit]",,
COc1c(C)cnc(Cn2cnc3c(Cl)nc(N)nc32)c1C,active: 0.148 µM,"inconclusive: 0.526 µM [cytotoxic, full curve, poor fit]",active: 0.235 µM,"inconclusive: 0.148 µM [cytotoxic, full curve]","inconclusive: 0.132 µM [cytotoxic, full curve]",active: 0.187 µM,active: 0.0662 µM,"inconclusive: 0.469 µM [falling, full curve]","inconclusive: 0.332 µM [cytotoxic, full curve]",
Nc1ccn([C@@H]2CS[C@H](CO)O2)c(=O)n1,"inconclusive: 67.9 µM [cytotoxic, single point]","inconclusive: 54 µM [cytotoxic, single point]","inconclusive: 76.2 µM [cytotoxic, single point]","inconclusive: 42.9 µM [cytotoxic, single point]",inactive,inactive,"inconclusive: 5.4 µM [rising, partial curve, poor fit]",,,
COc1cc(C=CC(=O)O)ccc1O,inactive,inconclusive: 0.001 µM,inconclusive: 0.001 µM,inactive,inactive,inactive,inactive,,inactive,
CCc1cccc2c3c([nH]c12)C(CC)(CC(=O)O)OCC3 (configuration not stated),"inconclusive: 0.0047 µM [rising, full curve, poor fit]",inactive,inactive,inactive,inactive,,,,,
c1ccc(-c2oc3ncnc(NC[C@@H]4CCCO4)c3c2-c2ccccc2)cc1,"inconclusive: 14.8 µM [cytotoxic, partial curve, poor fit]","inconclusive: 5.26 µM [rising, partial curve, poor fit]",active: 16.6 µM,"inconclusive: 13.2 µM [cytotoxic, partial curve]",,"inconclusive: 20.9 µM [cytotoxic, partial curve]",active: 16.6 µM,"inconclusive: 14.8 µM [falling, partial curve]",,

# In the list so far, these contain four or more nitrogen atoms:
Structure (SMILES),Potency [1],Potency [2],Potency [3],Potency [4],Potency [5],Potency [6],Potency [7],Potency [8],Potency [9],viability (% of control) [3]
C[C@H](O)[C@@H]1C(=O)N2C(C(=O)O)=C(S[C@@H]3CN[C@H](CNS(N)(=O)=O)C3)[C@@H](C)[C@@H]12,inactive,inactive,"inconclusive: 52.6 µM [cytotoxic, single point]",inactive,"inconclusive: 23.5 µM [cytotoxic, single point]",,,,,
O=C1[C@H](Cc2ccc(O)cc2)N2C(=O)CCN(C(=O)NCc3ccccc3)[C@H]2CN1Cc1cccc2ccccc12,"inconclusive: 4.69 µM [cytotoxic, full curve, poor fit]","inconclusive: 1.66 µM [cytotoxic, full curve, poor fit]",active: 4.69 µM,"inconclusive: 7.43 µM [cytotoxic, partial curve]","inconclusive: 8.33 µM [cytotoxic, partial curve]","inconclusive: 11.8 µM [cytotoxic, partial curve]",,"inconclusive: 23.5 µM [falling, single point]","inconclusive: 16.6 µM [cytotoxic, partial curve, poor fit]",
Cn1c(CNc2ccc(C(=N)N)cc2)nc2cc(C(=O)N(CCC(=O)O)c3ccccn3)ccc21,"inconclusive: 5.75 µM [cytotoxic, single point]","inconclusive: 0.0005 µM [cytotoxic, full curve, poor fit]","inconclusive: 18.2 µM [cytotoxic, single point]",inactive,inactive,,inactive,,,
CC1(C)CC(=O)c2c(C(F)(F)F)nn(-c3ccc(C(N)=O)c(NC4CCC(O)CC4)c3)c2C1 (configuration not stated),"inconclusive: 0.148 µM [cytotoxic, full curve]","inconclusive: 0.0833 µM [cytotoxic, full curve, poor fit]",active: 0.118 µM,"inconclusive: 0.166 µM [cytotoxic, full curve]","inconclusive: 0.132 µM [cytotoxic, full curve]",active: 0.166 µM,,active: 0.372 µM,,
CN(C)c1nc(N(C)C)nc(N(C)C)n1,"inconclusive: 1.87 µM [cytotoxic, partial curve, poor fit]",inactive,inactive,"inconclusive: 1.87 µM [cytotoxic, full curve, poor fit]","inconclusive: 6.62 µM [cytotoxic, partial curve, poor fit]",inactive,,"inconclusive: 5.9 µM [falling, partial curve, poor fit]",,
COc1c(C)cnc(Cn2cnc3c(Cl)nc(N)nc32)c1C,active: 0.148 µM,"inconclusive: 0.526 µM [cytotoxic, full curve, poor fit]",active: 0.235 µM,"inconclusive: 0.148 µM [cytotoxic, full curve]","inconclusive: 0.132 µM [cytotoxic, full curve]",active: 0.187 µM,active: 0.0662 µM,"inconclusive: 0.469 µM [falling, full curve]","inconclusive: 0.332 µM [cytotoxic, full curve]",
